According to patent US20130338092A1, “COMPOUNDS AND METHODS FOR TARGETING LEUKEMIC STEM CELLS” (The Broad Institute, Inc., priority 2011, published 2013):

System: MLL-AF9 LSC
Assay: Triple coculture (LSCs and HSPCs on primary MSCs), leukemia cells
Format: cell-based, murine
Conditions: for In vitro Therapeutic Index (HSPC/LSC): IC50 HSPC / IC50 LSC, triple coculture; for In vitro Therapeutic Index (Progenitors/LSC): IC50 human progenitors / IC50 murine LSC in triple coculture

SMILES	In vitro Therapeutic Index (HSPC/LSC)	In vitro Therapeutic Index (Progenitors/LSC)
Nc1ccn([C@@H]2O[C@H](CO)[C@@H](O)[C@@H]2O)c(=O)n1 [Ara-C]	<2	1
CCC(C)C(=O)OC1CC(C)C=C2C=CC(C)C(CCC(O)CC(O)CC(=O)O)C21 (centres unmarked) [Lovastatic acid]	>8	>20
CC1(C)C(C(=O)Nc2ccc(S(=O)(=O)c3ccc(NC(=O)C4C(C)(C)C4(C)C)cc3)cc2)C1(C)C [BRD7116]	>10	100
COc1cccc2c1C(=O)c1c(O)c3c(c(O)c1C2=O)C[C@@](O)(C(C)=O)C[C@@H]3O[C@H]1C[C@H](N)[C@H](O)[C@H](C)O1 [Daunorubicin]	<20	<8
